Laboratory results: publication PMC7854729 (Nature Communications, 2021)
Several values for one entry are separate records, joined by “and”; a condition that tells them apart may be missing. Identical values can stand only once. Like-named read-outs stand apart in the source and are kept apart here. The source gives many values for each of these; only a part stands here. Where a SMILES comes first, the peptide text is derived from it.

Target: T1, PLpro-WT (Severe acute respiratory syndrome coronavirus 2, UniProt P0DTD1)
T1 construct: PLpro is a domain of Nsp3—a large multidomain protein; made in house; host or cells: E. coli BL21(DE3)-Gold
Type: biochemical

CC(=O)N[C@@H](CC(C)C)C(=O)N[C@@H](CCCCN)C(=O)NCC(=O)NCC(=O)Nc1ccc2c(C)cc(=O)oc2c1 [probe] (HELM PEPTIDE1{[ac].L.K.G.G.[Cc1cc(=O)oc2cc(N[*:1])ccc12]}$$$$V2.0)
fluorescence (0.5 M PLP, time point 31): 2240 and 2250 and 2181
fluorescence normalised to probe only (0.5 M PLP, time point 31): 46.6667 and 46.875 and 45.4375
fluorescence (0.5 M PLP, time point 32): 2269 and 2293 and 2227
fluorescence normalised to probe only (0.5 M PLP, time point 32): 47.2708 and 47.7708 and 46.3958
fluorescence (0.5 M PLP, time point 33): 2306 and 2327 and 2258
fluorescence normalised to probe only (0.5 M PLP, time point 33): 48.0417 and 48.4792 and 47.0417
fluorescence (0.5 M PLP, time point 34): 2335 and 2369 and 2300
fluorescence normalised to probe only (0.5 M PLP, time point 34): 48.6458 and 49.3542 and 47.9167
fluorescence (0.5 M PLP, time point 35): 2376 and 2398 and 2340
fluorescence normalised to probe only (0.5 M PLP, time point 35): 49.5 and 49.9583 and 48.75
fluorescence (0.5 M PLP, time point 36): 2406 and 2431 and 2373
fluorescence normalised to probe only (0.5 M PLP, time point 36): 50.125 and 50.6458 and 49.4375
fluorescence (0.5 M PLP, time point 37): 2445 and 2469 and 2392
fluorescence normalised to probe only (0.5 M PLP, time point 37): 50.9375 and 51.4375 and 49.8333
fluorescence (0.5 M PLP, time point 38): 2476 and 2500 and 2430
fluorescence normalised to probe only (0.5 M PLP, time point 38): 51.5833 and 52.0833 and 50.625
fluorescence (1.0 M PLP, time point 1): 405 and 400 and 401
fluorescence normalised to probe only (1.0 M PLP, time point 1): 8.4375 and 8.333 and 8.354
fluorescence (1.0 M PLP, time point 2): 657 and 642 and 650
fluorescence normalised to probe only (1.0 M PLP, time point 2): 13.6875 and 13.375 and 13.5417
fluorescence (1.0 M PLP, time point 3): 894 and 867 and 877
fluorescence normalised to probe only (1.0 M PLP, time point 3): 18.625 and 18.0625 and 18.2708
fluorescence (1.0 M PLP, time point 4): 1104 and 1076 and 1091
fluorescence normalised to probe only (1.0 M PLP, time point 4): 23 and 22.4167 and 22.7292
fluorescence (1.0 M PLP, time point 5): 1302 and 1264 and 1282
fluorescence normalised to probe only (1.0 M PLP, time point 5): 27.125 and 26.3333 and 26.7083
fluorescence (1.0 M PLP, time point 6): 1481 and 1448 and 1469
fluorescence normalised to probe only (1.0 M PLP, time point 6): 30.8542 and 30.1667 and 30.6042
fluorescence (1.0 M PLP, time point 7): 1657 and 1611 and 1632
fluorescence normalised to probe only (1.0 M PLP, time point 7): 34.5208 and 33.5625 and 34
fluorescence normalised to probe only (1.0 M PLP, time point 14): 53.0833 and 51.2292 and 52.3333
fluorescence (1.0 M PLP, time point 15): 2660 and 2552 and 2616
fluorescence normalised to probe only (1.0 M PLP, time point 15): 55.4167 and 53.1667 and 54.5
fluorescence (1.0 M PLP, time point 16): 2739 and 2646 and 2710
fluorescence normalised to probe only (1.0 M PLP, time point 16): 57.0625 and 55.125 and 56.4583
fluorescence (1.0 M PLP, time point 17): 2817 and 2719 and 2786
fluorescence normalised to probe only (1.0 M PLP, time point 17): 58.6875 and 56.6458 and 58.0417
fluorescence (1.0 M PLP, time point 18): 2883 and 2799 and 2867
fluorescence normalised to probe only (1.0 M PLP, time point 18): 60.0625 and 58.3125 and 59.7292
fluorescence (1.0 M PLP, time point 19): 2968 and 2847 and 2926
fluorescence normalised to probe only (1.0 M PLP, time point 19): 61.8333 and 59.3125 and 60.9583
fluorescence (1.0 M PLP, time point 20): 3033 and 2931 and 3008
fluorescence normalised to probe only (1.0 M PLP, time point 20): 63.1875 and 61.0625 and 62.6667
fluorescence (1.0 M PLP, time point 21): 3089 and 2981 and 3065
fluorescence normalised to probe only (1.0 M PLP, time point 21): 64.3542 and 62.1042 and 63.8542
fluorescence (1.0 M PLP, time point 22): 3143 and 3037 and 3116
fluorescence normalised to probe only (1.0 M PLP, time point 22): 65.4792 and 63.2708 and 64.9167
fluorescence (1.0 M PLP, time point 23): 3195 and 3091 and 3165
fluorescence normalised to probe only (1.0 M PLP, time point 23): 66.5625 and 64.3958 and 65.9375
fluorescence (1.0 M PLP, time point 24): 3255 and 3150 and 3225
fluorescence normalised to probe only (1.0 M PLP, time point 24): 67.8125 and 65.625 and 67.1875
fluorescence (1.0 M PLP, time point 25): 3302 and 3185 and 3264
fluorescence normalised to probe only (1.0 M PLP, time point 25): 68.7917 and 66.3542 and 68
fluorescence (1.0 M PLP, time point 26): 3343 and 3213 and 3303
fluorescence normalised to probe only (1.0 M PLP, time point 26): 69.6458 and 66.9375 and 68.8125
fluorescence (1.0 M PLP, time point 27): 3374 and 3260 and 3349
fluorescence normalised to probe only (1.0 M PLP, time point 27): 70.2917 and 67.9167 and 69.7708
fluorescence (1.0 M PLP, time point 28): 3413 and 3284 and 3392
fluorescence normalised to probe only (1.0 M PLP, time point 28): 71.1042 and 68.4167 and 70.6667
fluorescence (1.0 M PLP, time point 29): 3459 and 3331 and 3423
fluorescence normalised to probe only (1.0 M PLP, time point 29): 72.0625 and 69.3958 and 71.3125
fluorescence (1.0 M PLP, time point 30): 3486 and 3350 and 3457
fluorescence normalised to probe only (1.0 M PLP, time point 30): 72.625 and 69.7917 and 72.0208
fluorescence (1.0 M PLP, time point 31): 3502 and 3381 and 3482
fluorescence normalised to probe only (1.0 M PLP, time point 31): 72.9583 and 70.4375 and 72.5417
fluorescence (1.0 M PLP, time point 32): 3532 and 3408 and 3501
fluorescence normalised to probe only (1.0 M PLP, time point 32): 73.5833 and 71 and 72.9375
fluorescence (1.0 M PLP, time point 33): 3565 and 3438 and 3531
fluorescence normalised to probe only (1.0 M PLP, time point 33): 74.2708 and 71.625 and 73.5625
fluorescence (1.0 M PLP, time point 34): 3583 and 3448 and 3552
fluorescence normalised to probe only (1.0 M PLP, time point 34): 74.6458 and 71.8333 and 74
fluorescence (1.0 M PLP, time point 35): 3605 and 3490 and 3574
fluorescence normalised to probe only (1.0 M PLP, time point 35): 75.1042 and 72.7083 and 74.4583
fluorescence (1.0 M PLP, time point 36): 3621 and 3506 and 3602
fluorescence normalised to probe only (1.0 M PLP, time point 36): 75.4375 and 73.0417 and 75.0417
fluorescence (1.0 M PLP, time point 37): 3636 and 3512 and 3605
fluorescence normalised to probe only (1.0 M PLP, time point 37): 75.75 and 73.1667 and 75.1042
fluorescence (1.0 M PLP, time point 38): 3654 and 3531 and 3628
fluorescence normalised to probe only (1.0 M PLP, time point 38): 76.125 and 73.5625 and 75.5833
